Data: US20240408093A1, “HETEROBIFUNCTIONAL COMPOUNDS AND THEIR USE IN TREATING DISEASE” (HALDA THERAPEUTICS OPCO, INC., priority 2022, published 2024)
Where two headings read alike, the source gives them in different places. Structures were worked out from names or drawings and are uncertain.

The chains behind the UniProt entries cited, without tags or fusion partners.
UniProt O75909, whole entry: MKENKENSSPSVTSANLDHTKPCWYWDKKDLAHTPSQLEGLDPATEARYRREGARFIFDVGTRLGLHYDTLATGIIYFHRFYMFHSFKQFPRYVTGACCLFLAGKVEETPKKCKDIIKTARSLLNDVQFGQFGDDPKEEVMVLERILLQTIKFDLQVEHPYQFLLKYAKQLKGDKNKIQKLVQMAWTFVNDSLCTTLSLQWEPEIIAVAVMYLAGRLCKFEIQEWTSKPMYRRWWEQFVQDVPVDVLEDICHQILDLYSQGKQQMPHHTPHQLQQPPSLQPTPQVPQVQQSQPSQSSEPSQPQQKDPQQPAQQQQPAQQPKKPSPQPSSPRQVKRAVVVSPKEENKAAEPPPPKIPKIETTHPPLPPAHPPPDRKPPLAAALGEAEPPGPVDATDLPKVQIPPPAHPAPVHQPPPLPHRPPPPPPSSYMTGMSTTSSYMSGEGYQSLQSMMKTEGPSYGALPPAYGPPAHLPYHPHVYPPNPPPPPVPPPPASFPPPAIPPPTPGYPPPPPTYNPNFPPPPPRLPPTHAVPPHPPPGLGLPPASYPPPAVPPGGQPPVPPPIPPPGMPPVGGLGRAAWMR
UniProt Q16531, whole entry: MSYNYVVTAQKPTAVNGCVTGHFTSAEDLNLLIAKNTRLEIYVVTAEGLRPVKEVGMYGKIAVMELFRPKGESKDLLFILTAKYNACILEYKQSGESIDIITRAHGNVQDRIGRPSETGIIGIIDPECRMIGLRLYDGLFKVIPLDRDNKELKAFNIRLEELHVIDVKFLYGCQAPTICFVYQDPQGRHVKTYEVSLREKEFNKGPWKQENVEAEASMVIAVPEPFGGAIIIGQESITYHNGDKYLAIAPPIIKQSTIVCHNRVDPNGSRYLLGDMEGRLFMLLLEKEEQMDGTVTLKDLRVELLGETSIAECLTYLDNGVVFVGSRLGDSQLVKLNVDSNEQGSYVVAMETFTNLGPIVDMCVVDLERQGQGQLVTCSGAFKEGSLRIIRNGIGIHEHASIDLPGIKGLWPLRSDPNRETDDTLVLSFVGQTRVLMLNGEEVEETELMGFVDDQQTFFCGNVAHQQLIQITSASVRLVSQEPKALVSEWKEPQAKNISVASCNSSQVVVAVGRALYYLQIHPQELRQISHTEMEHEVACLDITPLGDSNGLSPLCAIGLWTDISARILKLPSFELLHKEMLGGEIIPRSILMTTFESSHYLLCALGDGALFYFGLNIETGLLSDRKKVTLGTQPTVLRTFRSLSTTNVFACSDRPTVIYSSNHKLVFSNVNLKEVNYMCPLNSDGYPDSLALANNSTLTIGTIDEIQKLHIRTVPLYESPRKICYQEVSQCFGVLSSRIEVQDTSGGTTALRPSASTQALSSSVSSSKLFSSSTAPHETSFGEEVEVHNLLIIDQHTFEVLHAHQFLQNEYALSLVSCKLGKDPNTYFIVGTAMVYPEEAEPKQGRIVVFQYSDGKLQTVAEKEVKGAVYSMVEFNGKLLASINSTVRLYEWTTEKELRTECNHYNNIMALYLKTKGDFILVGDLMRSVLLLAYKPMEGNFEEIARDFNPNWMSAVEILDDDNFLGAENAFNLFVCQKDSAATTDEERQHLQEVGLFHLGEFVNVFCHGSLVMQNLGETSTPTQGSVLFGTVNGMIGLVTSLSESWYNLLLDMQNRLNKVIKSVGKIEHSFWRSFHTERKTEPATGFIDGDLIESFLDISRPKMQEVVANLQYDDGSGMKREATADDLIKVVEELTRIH
UniProt Q9NYV4, whole entry: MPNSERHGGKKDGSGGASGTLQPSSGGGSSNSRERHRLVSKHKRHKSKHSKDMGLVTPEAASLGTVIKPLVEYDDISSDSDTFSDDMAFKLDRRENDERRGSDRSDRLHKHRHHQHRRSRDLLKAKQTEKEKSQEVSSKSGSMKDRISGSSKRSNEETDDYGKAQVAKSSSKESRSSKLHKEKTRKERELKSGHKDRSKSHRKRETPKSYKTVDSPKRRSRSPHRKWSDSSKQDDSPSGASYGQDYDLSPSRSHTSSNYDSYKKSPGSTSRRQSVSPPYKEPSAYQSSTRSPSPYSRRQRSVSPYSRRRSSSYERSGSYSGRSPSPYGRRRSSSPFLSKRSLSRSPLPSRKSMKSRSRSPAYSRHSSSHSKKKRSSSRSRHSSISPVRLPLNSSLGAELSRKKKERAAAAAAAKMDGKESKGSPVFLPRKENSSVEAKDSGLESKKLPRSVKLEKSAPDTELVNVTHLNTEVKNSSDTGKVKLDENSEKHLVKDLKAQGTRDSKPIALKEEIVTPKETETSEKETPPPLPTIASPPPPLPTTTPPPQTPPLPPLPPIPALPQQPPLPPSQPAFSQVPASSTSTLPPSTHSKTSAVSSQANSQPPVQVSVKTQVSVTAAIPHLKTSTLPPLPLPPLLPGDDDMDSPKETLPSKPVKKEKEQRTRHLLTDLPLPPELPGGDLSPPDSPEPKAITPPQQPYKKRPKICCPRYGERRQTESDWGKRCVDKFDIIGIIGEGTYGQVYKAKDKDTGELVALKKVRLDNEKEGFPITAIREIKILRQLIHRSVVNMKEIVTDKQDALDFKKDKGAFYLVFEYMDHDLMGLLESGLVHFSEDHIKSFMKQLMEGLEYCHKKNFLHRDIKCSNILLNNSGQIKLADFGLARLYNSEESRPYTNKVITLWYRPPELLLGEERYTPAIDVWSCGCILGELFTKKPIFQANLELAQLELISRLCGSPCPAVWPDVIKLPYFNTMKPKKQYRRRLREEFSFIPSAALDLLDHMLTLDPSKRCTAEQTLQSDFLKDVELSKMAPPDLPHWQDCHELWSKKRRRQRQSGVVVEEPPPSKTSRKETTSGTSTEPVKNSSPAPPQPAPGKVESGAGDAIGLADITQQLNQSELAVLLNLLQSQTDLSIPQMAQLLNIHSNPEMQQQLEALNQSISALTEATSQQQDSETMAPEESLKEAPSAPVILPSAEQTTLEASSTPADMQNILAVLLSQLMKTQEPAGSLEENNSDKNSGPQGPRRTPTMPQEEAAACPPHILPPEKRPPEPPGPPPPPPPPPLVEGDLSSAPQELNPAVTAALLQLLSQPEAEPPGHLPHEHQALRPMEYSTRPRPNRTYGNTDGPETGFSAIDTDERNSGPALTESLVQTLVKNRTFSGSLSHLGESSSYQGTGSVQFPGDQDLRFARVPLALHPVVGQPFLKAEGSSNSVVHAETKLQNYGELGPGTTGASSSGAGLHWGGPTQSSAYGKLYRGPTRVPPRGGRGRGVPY
UniProt P15170, whole entry: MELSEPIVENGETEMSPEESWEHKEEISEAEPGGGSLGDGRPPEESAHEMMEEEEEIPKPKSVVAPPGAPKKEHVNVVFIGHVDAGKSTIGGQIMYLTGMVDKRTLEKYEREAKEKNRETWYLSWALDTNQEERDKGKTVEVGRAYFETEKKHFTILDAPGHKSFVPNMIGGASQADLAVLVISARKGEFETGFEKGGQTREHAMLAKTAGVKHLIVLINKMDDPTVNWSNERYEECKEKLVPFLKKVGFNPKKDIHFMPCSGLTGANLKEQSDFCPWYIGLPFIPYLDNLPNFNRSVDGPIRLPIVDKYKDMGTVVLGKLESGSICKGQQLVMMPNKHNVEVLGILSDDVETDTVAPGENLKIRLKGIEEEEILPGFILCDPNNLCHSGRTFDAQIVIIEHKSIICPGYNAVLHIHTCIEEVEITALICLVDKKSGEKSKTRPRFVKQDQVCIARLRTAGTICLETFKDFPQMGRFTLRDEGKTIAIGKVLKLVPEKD
UniProt Q96SW2, whole entry: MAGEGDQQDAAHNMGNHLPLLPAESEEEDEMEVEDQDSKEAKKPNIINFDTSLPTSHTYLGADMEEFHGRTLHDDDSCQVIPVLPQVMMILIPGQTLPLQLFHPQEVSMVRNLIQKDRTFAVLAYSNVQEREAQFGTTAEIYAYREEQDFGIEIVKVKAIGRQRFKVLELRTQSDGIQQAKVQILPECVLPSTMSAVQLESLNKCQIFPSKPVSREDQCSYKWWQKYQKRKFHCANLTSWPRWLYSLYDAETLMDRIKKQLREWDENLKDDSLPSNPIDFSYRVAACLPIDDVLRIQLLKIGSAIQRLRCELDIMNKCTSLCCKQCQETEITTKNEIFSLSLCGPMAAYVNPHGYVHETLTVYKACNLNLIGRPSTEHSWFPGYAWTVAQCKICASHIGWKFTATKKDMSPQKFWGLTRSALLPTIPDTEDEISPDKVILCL

Legend:
[1] = target: CCNK (Homo sapiens, UniProt O75909+Q16531+Q9NYV4); test: CCNK HiBiT degradation assay; details: HEK293 LgBiT/CCNK HiBiT cells, 6 hours
Method: HEK293 LgBiT cells (Promega) were cultured in DMEM (Gibco 11995), supplemented with 10% Heat-inactivated FBS (Gibco A38400-01) and 1% Penicillin/Streptomycin (Gibco 15140-122) and 200 μg/ml Hygromycin B (Gibco 10-687-010) at 37° C. with 5% CO2 in a humidified tissue culture incubator. Cells were made stable for CCNK fused to a C-terminal HiBiT peptide by lentiviral transduction, followed by selection with 1 μg/ml Puromycin Dihydrochloride (Thermo A1113803). HEK293 LgBiT/CCNK HiBiT cells were seeded at 3000 cells/well in 384-well, tissue culture-treated white plates (Perkin Elmer 6007680) in 25 μL media lacking selection for 18-24 hours. Plates were spun at 300 g for 30 seconds and stored in the incubator overnight. After 24 hours, compounds were titrated in DMSO and added to media supplemented with Endurazine Substrate (Promega N2570). A 25 ul aliquot of 2× compound/endurazine in media were then added to the 384-well microplate with seeded cells. (Endurazine was used at a final concentration of 0.5×). The plate was spun at 300 g for 30 seconds and stored in the incubator. After 6 hours the plate was read on Envision MultiMode Plate Reader 2105 (Perkin Elmer) to measure luminescence signal. Data were plotted in Prism (Graphpad) and the concentration of compound at which 50% CCNK degradation occurs (DC50) was calculated.

[2] = test system: CCNK; test: Payload release assay (DC50 readout), CCNK degradation in the presence of recombinant target protein; details: II-series compounds (CCNK readout inferred)
Method: (§1) Exemplary compounds were tested for ability to cause degradation of CCNK or GSPT1 in the presence of recombinant target protein.
(§2) HEK293 LgBiT/GSPT1 HiBiT CRISPR Knock-in cells (Promega) were cultured in DMEM (Gibco 11995), supplemented with 10% Heat-inactivated FBS (Gibco A38400-01) and 1% Penicillin/Streptomycin (Gibco 15140-122) and 200 Vg/ml Hygromycin B (Gibco 10-687-010) at 37° C. with 5% CO2 in a humidified tissue culture incubator. HEK293 LgBiT/CCNK HiBiT cells (in-house, described above) were cultured in DMEM (Gibco 11995), supplemented with 10% Heat-inactivated FBS (Gibco A38400-01) and 1% Penicillin/Streptomycin (Gibco 15140-122) 200 Vg/ml Hygromycin B (Gibco 10-687-010), and 1 Vg/ml Puromycin Dihydrochloride (Thermo A1113803) at 37° C. with 5% CO2 in a humidified tissue culture incubator. Cells were seeded (1000 cells/well for HEK293 LgBiT/GSPT1 HiBiT cells or 3000 cells/well for HEK293 LgBiT/CCNK HiBiT cells) 384-well, tissue culture-treated white plates (Perkin Elmer 6007680) in 10 μL media lacking selection for 18-24 hours. Plates were spun at 300 g for 30 seconds and stored in the incubator overnight. […] After 6 hours the plate was read on Envision MultiMode Plate Reader 2105 (Perkin Elmer) to measure luminescence signal. […]

[3] = target: GSPT1 (Homo sapiens, UniProt P15170+Q96SW2); test: GSPT1 HiBiT degradation assay; details: HEK293 LgBiT GSPT1 HiBiT cells, 6 hours
Source text: Promega developed a HEK293 cell line that constitutively expresses LgBiT protein and GSPT1_HiBiT fusion protein. When both proteins are present, the HiBiT portion of the fusion protein combines with LgBiT protein to form a functional luciferase enzyme. Endurazine, a cell permeable small molecule, is converted by cellular esterases into furimazine, which the luciferase enzyme uses as a substrate to generate luminescence. When GSPT1 is degraded, the HiBit is also degraded. This prevents formation of fully functional luciferase, leading to a loss in luminescence. GSPT1 degradation therefore correlates with a decrease in luminescence and can be measured continuously over time. The concentration of compound at which 50% GSPT1 degradation occurs (DC50) may be calculated using this system.
HEK293 LgBiTGSPT1 HiBiT CRISPR Knock-in cells were cultured in DMEM Media supplemented with 10% Heat-inactivated FBS, 1% Penicillin/Streptomycin, 200 μg/mL hygromycin and stored in a humidified incubator set at 37° C. and 5% CO2. […] After 6 hours, the plate was read on a Perkin Elmer MultiMode Plate Reader Envision 2105 to measure luminescence signal. Data were plotted in Prism (Graphpad) and the concentration of compound at which 50% GSPT1 degradation occurs (DC50) was calculated.

[4] = test system: GSPT1; test: Payload release assay (DC50 readout), GSPT1 degradation in the presence of recombinant target protein; details: I-series compounds (GSPT1 readout inferred)
Method: as §1, §2

[5] = read-out: DC50 at 0 μM KRAS G12C, 0 μM recombinant KRAS G12C
[6] = read-out: DC50 at 5 μM KRAS G12C, 5 μM recombinant KRAS G12C

In the case of `C=C(COC(=O)N1CCN(c2nc(NCc3nc4cc(C)ccc4[nH]3)n3ncc(Br)c3n2)CC1)C(=O)N1CCN(c2nc(OC[C@@H]3CCCN3C)nc3c2CCN(c2cccc4cccc(Cl)c24)C3)C[C@@H]1CC#N`, the DC50 [1] is reported as < 0.25 µM, the DC50 [2, 5] is reported as < 0.25 µM and the DC50 [2, 6] is reported as < 0.25 µM.

With `C=C(COC(=O)NCCc1cc(Cl)cc(NC(=O)NCc2ccc3c(c2)CN(C2CCC(=O)NC2=O)C3=O)c1)C(=O)N1CCN(c2nc(OC[C@@H]3CCCN3C)nc3c2CCN(c2cccc4cccc(Cl)c24)C3)C[C@@H]1CC#N` (stereo partly drawn) the DC50 [3] was > 2.5 µM, the DC50 [4, 5] was > 10 µM and the DC50 [4, 6] was < 0.25 µM.
